Results are given in words; binding and its absence hold for the method and conditions named. Binding seen in cells or lysates may run through a third protein. These calls come from enrichment with a bait or labelling near it, and not all partners need be listed.

These results are taken from article PMC10275759.

This test deals with T1, microfibril associated protein 5 (MFAP5), in CAFs used for LC-MS/MS (not stated (human CAF3 or mouse ImdyCAF cells)) (UniProt Q13361).
T1 sequence: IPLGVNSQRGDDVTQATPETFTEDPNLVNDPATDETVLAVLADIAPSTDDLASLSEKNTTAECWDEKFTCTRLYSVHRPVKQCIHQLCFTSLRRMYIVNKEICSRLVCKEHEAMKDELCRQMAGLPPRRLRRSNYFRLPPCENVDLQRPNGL
The test is described as follows: affinity purification with mass spectrometry; proteins binding with MFAP5 in CAFs identified by LC-MS/MS; no further conditions told.

B1: Reticulocalbin 2 (RCN2), in CAFs used for LC-MS/MS (protein, UniProt Q14257 23-317)
chain: GKAEELHYPLGERRSDYDREALLGVQEDVDEYVKLGHEEQQKRLQAIIKKIDLDSDGFLTESELSSWIQMSFKHYAMQEAKQQFVEYDKNSDDTVTWDEYNIQMYDRVIDFDENTALDDAEEESFRKLHLKDKKRFEKANQDSGPGLSLEEFIAFEHPEEVDYMTEFVIQEALEEHDKNGDGFVSLEEFLGDYRWDPTANEDPEWILVEKDRFVNDYDKDNDGRLDPQELLPWVVPNNQGIAQEEALHLIDEMDLNGDKKLSEEEILENPDLFLTSEATDYGRQLHDDYFYHDEL
On to B1, for which the binding result is recorded as “binds”.
